The text below walks through data of PubChem BioAssay AID1964107 (National Center for Advancing Translational Sciences (NCATS), 2024).

Protein sequences, listed by entry. Tags and fused reporters are not part of them. Lines headed by an entry give the natural chain unless they say otherwise; changes in a name come on top.
UniProt Q8JUX6: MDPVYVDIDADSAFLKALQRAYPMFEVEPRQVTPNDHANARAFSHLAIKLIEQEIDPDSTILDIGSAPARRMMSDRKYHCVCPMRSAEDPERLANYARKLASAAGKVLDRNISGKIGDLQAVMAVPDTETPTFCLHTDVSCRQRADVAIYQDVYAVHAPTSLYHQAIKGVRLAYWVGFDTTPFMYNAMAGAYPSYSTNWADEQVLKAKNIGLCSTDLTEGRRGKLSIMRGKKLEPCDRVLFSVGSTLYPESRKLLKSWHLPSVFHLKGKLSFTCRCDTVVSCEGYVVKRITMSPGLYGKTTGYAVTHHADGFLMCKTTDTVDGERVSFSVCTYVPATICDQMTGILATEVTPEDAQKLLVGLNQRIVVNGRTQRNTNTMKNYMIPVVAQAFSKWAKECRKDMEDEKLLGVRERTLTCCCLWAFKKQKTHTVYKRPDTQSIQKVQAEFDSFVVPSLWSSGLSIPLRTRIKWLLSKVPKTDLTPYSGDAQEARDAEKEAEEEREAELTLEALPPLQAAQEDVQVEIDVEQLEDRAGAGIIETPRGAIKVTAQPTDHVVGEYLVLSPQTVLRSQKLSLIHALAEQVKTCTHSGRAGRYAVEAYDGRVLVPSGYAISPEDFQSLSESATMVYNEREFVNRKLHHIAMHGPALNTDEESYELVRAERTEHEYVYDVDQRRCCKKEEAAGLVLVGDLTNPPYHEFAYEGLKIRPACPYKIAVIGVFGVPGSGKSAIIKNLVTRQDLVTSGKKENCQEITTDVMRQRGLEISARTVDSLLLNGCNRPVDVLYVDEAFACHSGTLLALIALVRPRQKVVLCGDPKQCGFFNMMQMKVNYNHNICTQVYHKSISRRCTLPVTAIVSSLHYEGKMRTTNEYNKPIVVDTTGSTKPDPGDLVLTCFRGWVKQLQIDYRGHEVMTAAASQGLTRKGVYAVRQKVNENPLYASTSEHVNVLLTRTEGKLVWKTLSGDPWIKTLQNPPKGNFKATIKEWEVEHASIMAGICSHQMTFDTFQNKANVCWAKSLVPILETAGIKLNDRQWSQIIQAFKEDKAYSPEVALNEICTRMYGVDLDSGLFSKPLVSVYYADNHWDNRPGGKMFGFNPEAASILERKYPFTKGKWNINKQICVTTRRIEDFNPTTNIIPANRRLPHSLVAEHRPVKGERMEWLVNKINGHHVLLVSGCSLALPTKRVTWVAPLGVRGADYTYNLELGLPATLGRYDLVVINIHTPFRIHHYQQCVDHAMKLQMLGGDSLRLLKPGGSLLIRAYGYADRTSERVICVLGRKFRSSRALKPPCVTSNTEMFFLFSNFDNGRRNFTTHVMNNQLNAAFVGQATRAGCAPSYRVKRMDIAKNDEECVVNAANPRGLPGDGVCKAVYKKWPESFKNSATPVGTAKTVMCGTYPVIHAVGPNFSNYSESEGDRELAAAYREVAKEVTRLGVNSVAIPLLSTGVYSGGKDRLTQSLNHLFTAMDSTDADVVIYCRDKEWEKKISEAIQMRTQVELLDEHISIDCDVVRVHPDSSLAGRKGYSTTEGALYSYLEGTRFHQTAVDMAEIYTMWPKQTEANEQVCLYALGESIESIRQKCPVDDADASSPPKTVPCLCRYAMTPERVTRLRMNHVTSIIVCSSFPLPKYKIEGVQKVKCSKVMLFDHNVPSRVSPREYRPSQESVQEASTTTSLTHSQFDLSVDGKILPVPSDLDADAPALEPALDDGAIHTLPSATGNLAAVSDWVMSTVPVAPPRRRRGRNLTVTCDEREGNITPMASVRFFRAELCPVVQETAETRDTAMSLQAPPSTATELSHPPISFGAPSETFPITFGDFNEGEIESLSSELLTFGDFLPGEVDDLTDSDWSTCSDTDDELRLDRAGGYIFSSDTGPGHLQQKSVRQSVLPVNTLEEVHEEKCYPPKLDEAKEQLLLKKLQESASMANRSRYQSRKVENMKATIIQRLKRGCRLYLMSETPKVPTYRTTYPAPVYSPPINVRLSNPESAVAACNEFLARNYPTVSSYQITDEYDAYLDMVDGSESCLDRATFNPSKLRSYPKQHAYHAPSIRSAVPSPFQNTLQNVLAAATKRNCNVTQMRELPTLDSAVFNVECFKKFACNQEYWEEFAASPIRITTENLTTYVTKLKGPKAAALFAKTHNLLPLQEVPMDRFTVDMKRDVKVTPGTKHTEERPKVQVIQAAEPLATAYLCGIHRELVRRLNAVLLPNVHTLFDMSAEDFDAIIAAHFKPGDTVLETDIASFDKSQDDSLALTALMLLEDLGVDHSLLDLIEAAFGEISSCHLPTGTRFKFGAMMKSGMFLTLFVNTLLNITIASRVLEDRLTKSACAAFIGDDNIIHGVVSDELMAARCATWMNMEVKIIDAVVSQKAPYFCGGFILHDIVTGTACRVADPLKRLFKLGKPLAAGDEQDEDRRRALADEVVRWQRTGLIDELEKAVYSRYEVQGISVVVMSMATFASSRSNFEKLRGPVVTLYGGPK

The structures appear in SMILES notation. What follows is the remainder of the data, with few or none of the hits. Inconclusive results are not listed. Calls of active or inactive are those of the source. Calls follow the shape of the full dose curve.
% is scaled to controls: 0 for no effect and ±100 for the full control effect.

This assay has as its target Polyprotein P1234 (Chikungunya virus (strain S27-African prototype)) (UniProt Q8JUX6). Kind of assay: Primary qHTS for inhibitors of NSP2Pro chikungunya virus (CHIKV). Also: nearly all actives have a fitted effect of over 60% in size. Particulars: FRET peptide cleavage, fluorescence 1 h; at 24.9 µM (top of the series). The source says:
PI: Natalia J. Martinez Ph.D. National Center for Advancing Translational Sciences (NCATS), National Institute of Health (NIH), Rockville, Maryland Chikungunya virus (CHIKV) is a mosquito-borne RNA virus that has emerged as one of the most important global arboviral threats in the last decade. Although the first CHIKV vaccine has recently been FDA approved for use in healthy adults at increased risk, to date, there are no available antiviral drugs for CHIKV infection. CHIKV nsP2 protease plays a crucial role in the processing of the viral polypeptide precursor to release enzymes required for viral replication, thus making it a promising drug target for antiviral discovery. Here, we established a high-throughput pipeline to identify small molecule inhibitors of nsP2 proteolytic activity. The pipeline is composed of a suite of 1,536-well in vitro assays to support quantitative high-throughput (qHTS) screening campaigns. Specifically, we developed a fluorescence resonance energy transfer (FRET)-based assay using a fluorogenic peptide substrate encompassing an endogenous cleavage site and purified recombinant protease domain (nsP2pro). Using this assay, we interrogated ~37,000 small molecules, including those in drug repurposing libraries as well as chemically diverse and medicinal chemistry-friendly compounds. Hits were selected for follow-up validation against full-length nsP2 and an additional peptide. FRET-based 1,536-well assays for papain, hepatitis C virus NS3-4A, and human furin proteases were implemented to characterize compound selectivity. […] Novel compounds were identified to be potential nsP2 inhibitors and molecular docking analyses were performed to explain the binding mode of selected hits. In vitro antiviral activity was evaluated for a subset of compounds using a high-throughput CHIKV infection assay. To our knowledge, the pipeline presented here is unprecedented for CHIKV antiviral discovery research.
PROTOCOL TABLE (as described by Inglese J, Shamu CE and Guy RK. 2007) SEQUENCE No. (e.g., 1, 2, 3, etc.); […] (e.g., Cells, Incubation, Reagent, etc.); VALUE; DESCRIPTION. 1; Control / Compound; 20 nL; Echo 655 acoustic dispenser, Greiner 1536-well solid bottom black plate. 2; Enzyme; 4 uL; BioRAPTR FRD liquid dispenser (Beckman Coulter). 3; Incubation; 15 min; room temperature. 4; Reagent; 4 uL; 2.5 uM Peptide 2 substrate. 5; Incubation; 1 hr; room temperature. 6; Detection; Fluorescence; WiewLux microplate reader (PerkinElmer), 525 nm excitation, 598/25 nm emission. NOTES (numbers refer to sequence numbers above). 1. Briefly, 20 nL DMSO, positive control ZnAc (20nM final concentration), and test compounds were transferred into a 1,536-well solid bottom black plate (789176-F, Greiner One) via Echo 655 acoustic dispenser (Beckman Coulter). For primary screens, compounds were tested at 7 concentrations, 1:3 dilution points ranging from 25 uM to 34 nM. Follow-up confirmatory screens were carried out at 11 concentrations, 1:3 dilution points from 25 uM to 0.42 nM. 2. […] After 1 hour, plates were immediately read on a ViewLux high-throughput CCD imager (Exposure = 10 sec, Gain = High, Speed = Slow, Binning = 2X). The above assay was also incorporated in the NCATS HTS facility41, which allowed for robotic liquid and compound dispensing, microplate handling, and fluorescence reading.. […]
A general note: In qHTS, concentration-response curves come from the screen itself.
On to `CN1[C@@H]2CC(OC(=O)[C@H](CO)c3ccccc3)C[C@H]1[C@@H]1O[C@@H]12` (stereo not given in full), for which the activity change, negative = inhibition was inactive: 1.97%.

On to `CN(C)/C(N)=N/C(=N)N`, for which the activity change, negative = inhibition is inactive: -6.73%.

Consider `C[N+]1(C)CCC(OC(=O)C(O)(c2ccccc2)C2CCCC2)C1` (stereo not given), for which the activity change, negative = inhibition was inactive: 15.4%.

For the compound `Cc1cnc(C(=O)NCCc2ccc(S(=O)(=O)NC(=O)NC3CCCCC3)cc2)cn1`, the activity change, negative = inhibition is inactive: 18.7%.

As for `O=C(c1ccccc1)c1ccccc1`, the activity change, negative = inhibition is inactive: -1.41%.
